Results on ten compounds are retold here after the supplement of paper PMC10689618.

Common to all, as to conditions: 24 h
The test system of test [1] is Human fetal astrocytes. Briefly: loss of total cells relative to no-compound high-control median (toxicity); higher = more toxic (fewer cells).
The test system of test [2] is Human fetal astrocytes. Briefly: synaptosome phagocytosis (pHrodo/calcein intensity ratio) relative to plate median of data wells; higher = more phagocytosis.
The subject of test [3] is Human fetal astrocytes. Briefly: loss of total cells relative to no-compound high-control median (toxicity); higher = more toxic (fewer cells). This is another data set of the same source.
The subject of test [4] is Human fetal astrocytes. Briefly: synaptosome phagocytosis (pHrodo/calcein intensity ratio) relative to plate median of data wells; higher = more phagocytosis. This is another data set of the same source.

SMILES strings stand for the structures. Where “and” joins values, the source holds several entries; their conditions need not be identical. Identical values can stand only once. Some of the results follow. Many values rest on one well or one pass, so single values are uncertain.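 Labelled rat cortical synaptosomes were engulfed by primary human fetal astrocytes. Engulfment equaled a red/green ratio, corrected for calcein live-cell signal and normalized to the plate median. Compounds were toxic when calcein dropped over 30%, and reduced phagocytosis when below 70% of the median above 5 µM.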

As for `C[C@H]1[C@H](NC(=O)/C(=N\OC(C)(C)C(=O)O)c2csc(N)n2)C(=O)N1S(=O)(=O)O`, the “loss of total cells” value in the test with Human fetal astrocytes [1] (2.78 µM) was 13.3% and -0.7%; in the test on Human fetal astrocytes [1] (5.56 µM) it was -13% and -17.6%; with Human fetal astrocytes [1] (22.22 µM) it was -0.4% and 10.7%. The synaptosome phagocytosis was 88% and 82.9% in the test with Human fetal astrocytes [2] (1.39 µM); 125% and 105% in the test with Human fetal astrocytes [2] (2.78 µM); 97.9% and 81.8% in the test on Human fetal astrocytes [2] (5.56 µM); 121% and 106% in the test on Human fetal astrocytes [2] (11.11 µM).

Consider `CC[C@H](C)C(=O)O[C@H]1CCC=C2C=C[C@H](C)[C@H](CC[C@@H]3C[C@@H](O)CC(=O)O3)[C@H]21`, for which the “loss of total cells” value was -7.4% in the test with Human fetal astrocytes [1] (1.39 µM); 2.5% with Human fetal astrocytes [1] (2.78 µM); 11% in the test on Human fetal astrocytes [1] (5.56 µM); 5.4% in the test with Human fetal astrocytes [1] (11.11 µM); 12.6% in the test with Human fetal astrocytes [1] (22.22 µM). The synaptosome phagocytosis with Human fetal astrocytes [2] (1.39 µM) is 90.3%; with Human fetal astrocytes [2] (2.78 µM), 115%; in the test on Human fetal astrocytes [2] (5.56 µM) it was 75.5%; in the test on Human fetal astrocytes [2] (11.11 µM), 87.5%; with Human fetal astrocytes [2] (22.22 µM), 93.8%.

In the case of `Nc1nc(=O)c2[nH]c(=O)cnc2[nH]1`, the “loss of total cells” value in the test with Human fetal astrocytes [1] (1.39 µM) was -8.2%; in the test on Human fetal astrocytes [1] (2.78 µM), 4%; with Human fetal astrocytes [1] (5.56 µM), -23.4%; with Human fetal astrocytes [1] (11.11 µM), 14.9%; in the test with Human fetal astrocytes [1] (22.22 µM) it was 4.4%. Besides, the synaptosome phagocytosis in the test with Human fetal astrocytes [2] (1.39 µM) is 131%; with Human fetal astrocytes [2] (2.78 µM), 116%; with Human fetal astrocytes [2] (5.56 µM), 89.4%; in the test on Human fetal astrocytes [2] (11.11 µM) it was 101%; in the test on Human fetal astrocytes [2] (22.22 µM) it was 97.3%.

On to `CC(=O)OCC(=O)[C@@]1(O)CC[C@H]2[C@@H]3CCC4=CC(=O)C=C[C@]4(C)[C@@]3(Cl)[C@@H](Cl)C[C@@]21C`, for which the “loss of total cells” value in the test on Human fetal astrocytes [1] (1.39 µM) was 17%; in the test with Human fetal astrocytes [1] (2.78 µM), 15.5%; with Human fetal astrocytes [1] (5.56 µM) it was 14.5%; in the test on Human fetal astrocytes [1] (11.11 µM), -0.4%; in the test on Human fetal astrocytes [1] (22.22 µM) it was 0.8%. Also, the synaptosome phagocytosis in the test with Human fetal astrocytes [2] (1.39 µM) was 136%; with Human fetal astrocytes [2] (2.78 µM), 126%; with Human fetal astrocytes [2] (5.56 µM), 148%; in the test with Human fetal astrocytes [2] (11.11 µM) it was 124%; in the test with Human fetal astrocytes [2] (22.22 µM), 74.5%.

As to `O=C(O)c1cn(C2CC2)c2cc(N3CCNCC3)c(F)cc2c1=O`, the “loss of total cells” value in the test on Human fetal astrocytes [1] (1.39 µM) is -33.9%; in the test on Human fetal astrocytes [1] (2.78 µM) it was -44.4%; in the test on Human fetal astrocytes [1] (5.56 µM), 5%; in the test on Human fetal astrocytes [1] (11.11 µM) it was 1%; in the test with Human fetal astrocytes [1] (22.22 µM), 9.7%. The synaptosome phagocytosis is 88.5% in the test on Human fetal astrocytes [2] (1.39 µM); 83.9% with Human fetal astrocytes [2] (2.78 µM); 130% with Human fetal astrocytes [2] (5.56 µM); 99.7% with Human fetal astrocytes [2] (11.11 µM); 109% in the test with Human fetal astrocytes [2] (22.22 µM).

For `CC(C)c1nc(N(C)S(C)(=O)=O)nc(-c2ccc(F)cc2)c1/C=C/[C@@H](O)C[C@@H](O)CC(=O)O`, the “loss of total cells” value is -39.5% in the test on Human fetal astrocytes [1] (1.39 µM); -27.8% in the test on Human fetal astrocytes [1] (2.78 µM); 12.4% in the test with Human fetal astrocytes [1] (5.56 µM); 2.3% in the test with Human fetal astrocytes [1] (11.11 µM); 7.2% in the test with Human fetal astrocytes [1] (22.22 µM). In addition, the synaptosome phagocytosis in the test with Human fetal astrocytes [2] (1.39 µM) was 120%; with Human fetal astrocytes [2] (2.78 µM), 82%; in the test with Human fetal astrocytes [2] (5.56 µM) it was 91%; in the test with Human fetal astrocytes [2] (11.11 µM), 86.9%; in the test with Human fetal astrocytes [2] (22.22 µM) it was 90.5%.

As for `COc1cc(-c2ccc(/N=N/c3ccc4c(S(=O)(=O)O)cc(S(=O)(=O)O)c(N)c4c3O)c(OC)c2)ccc1/N=N/c1ccc2c(S(=O)(=O)O)cc(S(=O)(=O)O)c(N)c2c1O`, the “loss of total cells” value is 14.1% in the test with Human fetal astrocytes [1] (1.39 µM); 5.4% in the test on Human fetal astrocytes [1] (2.78 µM); 37% with Human fetal astrocytes [1] (5.56 µM); 54.8% in the test on Human fetal astrocytes [1] (11.11 µM); 65.9% with Human fetal astrocytes [1] (22.22 µM). The synaptosome phagocytosis with Human fetal astrocytes [2] (1.39 µM) is 108%; in the test on Human fetal astrocytes [2] (2.78 µM), 90.2%; in the test with Human fetal astrocytes [2] (5.56 µM), 52.4%; with Human fetal astrocytes [2] (11.11 µM) it was 128%; with Human fetal astrocytes [2] (22.22 µM) it was 110%.

As to `O=C(O)c1cc(=O)c2ccccc2[nH]1` [Kynurenic acid], the “loss of total cells” value in the test with Human fetal astrocytes [3] (1.39 µM) is 0.5%; in the test on Human fetal astrocytes [3] (2.78 µM), -11.3%; in the test with Human fetal astrocytes [3] (5.56 µM), 8.9%; in the test with Human fetal astrocytes [3] (11.11 µM), 4.8%; in the test with Human fetal astrocytes [3] (22.22 µM), 8.4%. The synaptosome phagocytosis with Human fetal astrocytes [4] (1.39 µM) is 107%; with Human fetal astrocytes [4] (2.78 µM) it was 90.3%; with Human fetal astrocytes [4] (5.56 µM), 67.5%; in the test with Human fetal astrocytes [4] (11.11 µM) it was 76%; with Human fetal astrocytes [4] (22.22 µM), 54.6%.

For `CCCCCCCCCCCCC(C(=O)O)C(C)C(=O)O` (configuration not stated), the “loss of total cells” value in the test on Human fetal astrocytes [1] (1.39 µM) was -14.9%; in the test on Human fetal astrocytes [1] (2.78 µM), 9.3%; with Human fetal astrocytes [1] (5.56 µM), -10.7%; in the test with Human fetal astrocytes [1] (11.11 µM), 6.5%; in the test with Human fetal astrocytes [1] (22.22 µM) it was 1.1%. Further, the synaptosome phagocytosis in the test on Human fetal astrocytes [2] (1.39 µM) was 115%; with Human fetal astrocytes [2] (2.78 µM), 94.3%; in the test with Human fetal astrocytes [2] (5.56 µM), 105%; with Human fetal astrocytes [2] (11.11 µM), 85.8%; in the test with Human fetal astrocytes [2] (22.22 µM), 97.8%.

Take `CC(C)[C@@H](C)/C=C/[C@@H](C)[C@H]1CC[C@H]2C3=CC=C4C[C@@H](O)CC[C@]4(C)[C@H]3CC[C@]12C` [Ergosterol]: the “loss of total cells” value is -2.5% in the test on Human fetal astrocytes [1] (1.39 µM); 5.3% in the test with Human fetal astrocytes [1] (2.78 µM); -7.6% with Human fetal astrocytes [1] (5.56 µM); 36.8% with Human fetal astrocytes [1] (11.11 µM); 17.4% in the test on Human fetal astrocytes [1] (22.22 µM). The synaptosome phagocytosis with Human fetal astrocytes [2] (1.39 µM) is 83.4%; in the test on Human fetal astrocytes [2] (2.78 µM), 118%; with Human fetal astrocytes [2] (5.56 µM) it was 75.5%; in the test on Human fetal astrocytes [2] (11.11 µM), 129%; in the test on Human fetal astrocytes [2] (22.22 µM) it was 124%.
